Article PMC3809587, “Structure and function of the Smoothened extracellular domain in vertebrate Hedgehog signaling” (eLife, 2013)
No constants are given. Whether binding was seen depends on the method and setting.

B1: zebrafish Smoothened ectodomain (glycosylated, expressed in mammalian cells) (domain or fragment, UniProt Q5RH73 29-195)
chain: VILHPNETIFNDFCKKSTTCEVLKYNTCLGSPLPYTHTSLILAEDSETQEEAFEKLAMWSGLRNAPRCWAVIQPLLCAVYMPKCENGKVELPSQHLCQATRNPCSIVERERGWPNFLKCENKEQFPKGCQNEVQKLKFNTSGQCEAPLVKTDIQASWYKDVEGCGIQ
modifications: glycosylated (two predicted N-linked glycosylation sites)
B2: zebrafish Smoothened ectodomain (bacterial expression, used for crystallization) (domain or fragment, UniProt Q5RH73 29-212)
chain: VILHPNETIFNDFCKKSTTCEVLKYNTCLGSPLPYTHTSLILAEDSETQEEAFEKLAMWSGLRNAPRCWAVIQPLLCAVYMPKCENGKVELPSQHLCQATRNPCSIVERERGWPNFLKCENKEQFPKGCQNEVQKLKFNTSGQCEAPLVKTDIQASWYKDVEGCGIQCDNPLFTEDEHSDMHSY

Legend:
[1] = target: zebrafish Smoothened ectodomain (glycosylated, expressed in mammalian cells) (zebrafish) (UniProt Q5RH73); test: SEC-MALS; analytical Superdex S200 10/30, 150 mM NaCl, 10 mM HEPES pH 7.5, flow rate 0.5 ml/min; low concentration (5 µM); protein concentration at the elution peak 8.123×10^-5 g/ml; both purified
[2] = target: zebrafish Smoothened ectodomain (bacterial expression, used for crystallization) (zebrafish) (UniProt Q5RH73); test: crystal structure; zSmo ectodomain at 7 mg/ml, sitting drop, 100 mM HEPES pH 7.0, PEG 6000 20%, 10 mM ZnCl2, 20.5°C; two molecules in the asymmetric unit; both purified

Row | binding [1] | binding [2] | Binder
1 | no binding (tested: 5 µM) |  | B1
2 |  | no binding | B2
